Laboratory results reported in US20230310356A1, “COMPOSITION FOR PREVENTING, AMELIORATING, OR TREATING BRAIN DAMAGE AND MILD COGNITIVE IMPAIRMENT COMPRISING GLUTAMINE AS EFFECTIVE COMPONENT” (INDUSTRY-ACADEMIC COOPERATION FOUNDATION GYEONGSANG …, priority 2020, published 2023).

Test: Change in bodyweight and food intake after chronic immobilization stress (CIS) and glutamine supplementation
Assay type: in vivo, mouse
Details: glutamine 150 mg/kg of feed, 15 days
Protocol: In the present invention, C57BL/6 male mice (7-weeks old, KOATECH, South Korea) were kept under standard conditions (i.e., temperature of 22 to 24° C., humidity of 50 to 70%, and 12-hour light/dark cycle with lighting on 6 AM), and the animals were allowed to have free access to diets and water. The animals used for the present invention were handled according to the protocol (GNU-161128-M0068) acknowledged by Gyeongsang National University Institutional Animal Care and Use Committee (GNU IACUC), which follows the guidelines of National Institutes of Health (NIH, Bethesda, MD, USA). Control (CTL) is a group which received normal diet (common diet with nutritional balance) without any stress, CTL+Gln group is a normal diet group supplemented with glutamine (150 mg/kg of feed) and without any stress, STR is a normal diet group under stress, and STR+Gln group is a normal diet group supplemented with glutamine (150 mg/kg of feed) under stress. […] By using the above first cohort, a change in bodyweight and a food intake were measured for each animal model group (28 animals in total, i.e., 7 animals per group), in which the measurement was made, with an interval of 2 days, for 15 days of applying stress.

With `NC(=O)CC[C@H](N)C(=O)O` [glutamine] the change in bodyweight (with vs without glutamine supplementation) was “hardly affected” and the food intake (CTL, CTL+Gln, STR and STR+Gln groups) was “almost no difference”.
